No constants are given. Whether binding was seen depends on the method and setting. In cells and extracts the contact can be indirect. Some results given as binding are weak or reduced against the parent protein; the word gives no strength. Where a sequence is shown, tags or fusion partners need not be part of it.
B1: Wnt1.Myc5 (ligand, UniProt P04426 28-370)
chain: ANSSGRWWGIVNIASSTNLLTDSKSLQLVLEPSLQLLSRKQRRLIRQNPGILHSVSGGLQSAVRECKWQFRNRRWNCPTAPGPHLFGKIVNRGCRETAFIFAITSAGVTHSVARSCSEGSIESCTCDYRRRGPGGPDWHWGGCSDNIDFGRLFGREFVDSGEKGRDLRFLMNLHNNEAGRTTVFSEMRQECKCHGMSGSCTVRTCWMRLPTLRAVGDVLRDRFDGASRVLYGNRGSNRASRAELLRLEPEDPAHKPPSPHDLVYFEKSPNFCTYSGRLGTAGTAGRACNSSSPALDGCELLCCGRGHRTRTQRVTERCNCTFHWCCHVSCRNCTHTRVLHECL
B2: Wnt5a.Myc5 (ligand, UniProt P22725 62-380)
chain: IIGAQPLCSQLAGLSQGQKKLCHLYQDHMQYIGEGAKTGIKECQYQFRHRRWNCSTVDNTSVFGRVMQIGSRETAFTYAVSAAGVVNAMSRACREGELSTCGCSRAARPKDLPRDWLWGGCGDNIDYGYRFAKEFVDARERERIHAKGSYESARILMNLHNNEAGRRTVYNLADVACKCHGVSGSCSLKTCWLQLADFRKVGDALKEKYDSAAAMRLNSRGKLVQVNSRFNSPTTQDLVYIDPSPDYCVRNESTGSLGTQGRLCNKTSEGMDGCELMCCGRGYDQFKTVQTERCHCKFHWCCYVKCKKCTEIVDQFVCK

Protein sequences, listed by entry. Tags and fused reporters are not part of them. Chains listed by the source or under a name are the forms on record and can include a tag or linker. Residues count along the entry.
hRYK.Fc (entire human RYK extracellular region fused to Fc.FLAG) (P34925, residues 26-227): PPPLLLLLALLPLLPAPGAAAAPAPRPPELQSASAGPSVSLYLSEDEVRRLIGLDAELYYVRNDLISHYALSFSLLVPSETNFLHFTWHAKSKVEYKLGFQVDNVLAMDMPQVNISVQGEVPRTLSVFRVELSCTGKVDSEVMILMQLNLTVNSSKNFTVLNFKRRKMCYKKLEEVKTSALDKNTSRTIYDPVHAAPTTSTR
hRYKWD.Fc (WIF domain of human RYK fused to the Fc.FLAG region of human IgG1) (P34925, residues 66-194): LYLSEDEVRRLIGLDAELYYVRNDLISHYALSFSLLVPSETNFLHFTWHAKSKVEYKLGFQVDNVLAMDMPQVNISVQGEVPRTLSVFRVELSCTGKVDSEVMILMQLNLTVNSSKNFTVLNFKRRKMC
UniProt P27467, residues 19-352: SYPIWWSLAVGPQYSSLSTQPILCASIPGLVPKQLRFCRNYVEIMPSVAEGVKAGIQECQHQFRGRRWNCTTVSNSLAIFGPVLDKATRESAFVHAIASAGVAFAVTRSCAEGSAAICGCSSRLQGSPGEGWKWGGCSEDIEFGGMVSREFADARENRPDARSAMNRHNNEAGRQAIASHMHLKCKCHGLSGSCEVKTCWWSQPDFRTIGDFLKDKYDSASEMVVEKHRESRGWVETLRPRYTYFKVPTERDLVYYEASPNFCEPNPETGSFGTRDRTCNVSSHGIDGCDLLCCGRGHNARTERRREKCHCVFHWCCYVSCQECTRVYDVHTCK

What was measured:
[1] = target: hRYK.Fc (entire human RYK extracellular region fused to Fc.FLAG) (human) (UniProt P34925); test: co-IP; 250 ng purified hRYK.Fc pre-incubated with 20 µg scFv or IgG at 4°C for 1 h, then lysate of Wnt3a.Myc5- or Wnt5a.Myc5-transfected HEK293T cells (10-20 µg) and anti-FLAG M2 affinity gel, 4°C, 1 h; washes with 150 mM NaCl/0.1% Triton X-100, 500 mM NaCl, 50 mM Tris; blot with anti-Myc; only the target purified
[2] = target: hRYKWD.Fc (WIF domain of human RYK fused to the Fc.FLAG region of human IgG1) (human) (UniProt P34925); test: co-IP; 1 µg purified hRYKWD.Fc added to lysates (200 µg) of transiently transfected HEK293T cells; anti-FLAG IP, immunoblot with anti-Myc antibody; only the target purified

| Molecule | binding [1] | binding [2] |
| --- | --- | --- |
| Wnt3a.Myc5 (from UniProt P27467 19-352) (ligand) | binds | binds |
| B1 |  | binds |
| B2 | binds | binds |
